# Measured data: PubChem BioAssay AID1508588 (Peter MacCallum Cancer Centre, 2020)
# Test: 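Knock-downs boosting vemurafenib effects on melanoma cell growth or lactate release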 (primary screen)
# System: human WM266.4 melanoma cells (BRAF V600 mutant)
# Reagent: siRNA pool against human genes, 40 nM
# Duration: 96 h from transfection to read-out
# Challenge: vemurafenib 300 nM (about IC25), added 48 h after transfection, for 48 h; comparison arm got DMSO vehicle only
# Read-out: 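Ratios to non-targeting siRNA for cell gain, counted as DAPI nuclei after minus before drug and averaged over two replicates, and for absorbance-read medium lactate per cell; both binned into fold-change classes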
# Reading the numbers: cell gain with vemurafenib: higher = more cell gain than with non-targeting siRNA; lactate per cell with vemurafenib: higher = more lactate made per cell
# Rule for the call: 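Enhancement is called by pairing each knock-down's vehicle-arm and drug-arm fold-change classes for viability or glycolysis; which class combinations qualify is not given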
# Meaning of the calls: active = enhances vemurafenib effect; inactive = no enhancement seen
# Here is a random part of about 18,000 deposited reagents. 790 of them (4.4%) count as active. 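Calls rest on a combination of fold-change classes in drug and vehicle arms, not all shown here.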 A number with no mark means an inactive call.
The first 3 records as a preview:
target,cell gain with vemurafenib,lactate per cell with vemurafenib
MAST2,0.66,1.25
GLYATL1,0.15,1.18
FLNC,0.78,0.44

The listing, repeating the preview:
target,cell gain with vemurafenib,lactate per cell with vemurafenib
MAST2,0.66,1.25
GLYATL1,0.15,1.18
FLNC,0.78,0.44
SLFN13,0.47,0.63
PANK4,0.37,1.27
MYOZ3,0.73,1.18
MUSTN1,0.17,1.48
CENPH,0.4,1.29
PXDNL,0.43,1.26
G6PC2,0.74,0.9
HACD1,0.81,0.57
TG,1.25,0.72
TCL1A,0.69,0.8
GMIP,1.21,0.35
SLC35A3,0.34,1.44
TESC,0.68,0.76
SSNA1,0.52,1.11
PIGR,0.72,1.06
LYVE1,0.49,0.59
SARAF,0.13,0.4
PSMA1,-0.06,2.25
PP2D1,0.88,0.52
GNLY,0.68,0.57
SNX8,0.71,0.52
SLIT1,0.62,1.21
RCBTB1,0.85,0.46
AMER3,0.52,1.34
ZFAND2A,0.24,1.66
DNLZ,0.42,0.84
H2AC4,0.58,0.66
VPS33A,0.07,1.83
NAT8,0.8,0.73
FANK1,0.57,0.95
IFNA4,0.86,0.9
